Results reported in PubChem BioAssay AID504810 (National Center for Advancing Translational Sciences (NCATS), 2011).
“And” between values parts separate entries of the source, which are not always exact repeats. Equal values may be shown once. Out of some 330,000 compounds screened, about 670 (0.2%) were called active. The inconclusive results got no clear call from the source; some entries with a clear call stand among them for comparison.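 How the source made its calls: active means activity change below a set negative limit, meaning inhibition stronger than a set level (cut at about -70% in these data); inconclusive means activity change between two set negative limits; inactive means the rest.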

Sequences of proteins named here, by UniProt entry; tags and fusion partners are left off.
UniProt P16473, whole entry, looked up: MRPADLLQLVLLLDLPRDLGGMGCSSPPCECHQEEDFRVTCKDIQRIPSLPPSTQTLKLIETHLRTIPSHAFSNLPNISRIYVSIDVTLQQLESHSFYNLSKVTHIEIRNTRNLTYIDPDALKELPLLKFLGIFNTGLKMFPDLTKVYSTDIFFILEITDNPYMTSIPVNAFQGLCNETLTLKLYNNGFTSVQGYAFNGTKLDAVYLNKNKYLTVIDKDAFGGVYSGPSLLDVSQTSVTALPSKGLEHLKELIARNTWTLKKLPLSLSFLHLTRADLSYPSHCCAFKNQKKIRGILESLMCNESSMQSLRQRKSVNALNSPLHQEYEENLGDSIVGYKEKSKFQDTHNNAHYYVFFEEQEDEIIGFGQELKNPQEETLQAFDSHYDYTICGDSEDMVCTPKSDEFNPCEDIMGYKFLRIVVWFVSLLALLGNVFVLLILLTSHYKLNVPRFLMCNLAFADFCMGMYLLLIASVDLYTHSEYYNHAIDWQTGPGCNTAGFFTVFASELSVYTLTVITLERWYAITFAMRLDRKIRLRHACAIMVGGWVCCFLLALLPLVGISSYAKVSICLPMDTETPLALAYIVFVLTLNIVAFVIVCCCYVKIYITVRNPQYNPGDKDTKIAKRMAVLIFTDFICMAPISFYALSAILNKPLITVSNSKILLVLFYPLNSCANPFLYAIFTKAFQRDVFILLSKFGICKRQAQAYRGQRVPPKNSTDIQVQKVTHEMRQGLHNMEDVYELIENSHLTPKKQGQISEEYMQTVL

molecular target: Thyrotropin receptor (Homo sapiens) (UniProt P16473); experiment: Antagonists of the Thyroid Stimulating Hormone Receptor: HTS campaign; conditions: TSHR-expressing cells, TSH-stimulated cAMP HTRF, 2 h; at 11.5 µM; hits give low values
Source text: The thyroid-stimulating hormone receptor (TSHR) is a member of the 7 trans-membrane-spanning receptor (7TMR) family of cell surface receptors. TSHR-mediated hyperthyroidism is important in thyroid pathology. The development of small molecule antagonists of TSHR may lead to therapeutic approaches for TSHR-mediated hyperthyroidism caused by constitutively activating mutations or stimulating auto-antibodies associated with Graves' disease. Graves' disease is the leading cause of hyperthyroidism and is caused by autoantibodies that stimulate TSHR (TsAbs) causing thyroid growth and unregulated overproduction of thyroid hormones and existing treatments have liabilities (agranulocytosis). In addition, TSHRs are known to be expressed in multiple extrathyroidal tissues including bone, brain, kidney, testis, fat and cells of the immune system but the role of the TSHR in these tissues is not clear. Therefore, TSHR antagonists/inverse agonists could be used as probes of extrathyroidal TSHR function. Finally, TSHR inverse agonists, which are a subclass of antagonists that inhibit agonist-independent (or basal or constitutive) TSHR signaling, could be used to inhibit TSH-independent signaling in patients with recurrent or metastatic thyroid cancer who are receiving thyroid hormone to suppress TSH. In collaboration between scientist from the NCGC and the NIDDK, a miniaturized HTRF high-throughput screen was developed. It's a cell based assay, where an anti cAMP antibody contains a fluorescent cryptate tag (excitation 337 nm; emission 620 nm) and the acceptor is cAMP-d2 (excitation 620 nm; emission 665 nm). When antibody and cAMP-d2 interact and are excited by a 337 nm light, a FRET occurs resulting in emission at 665 nm. The assay is competition between cAMP-d2 and cAMP (from the cell lysate). The homogeneous protocol allows for one step dispense after stimulation that is automation friendly. NIH Chemical Genomics Center [NCGC] NIH Molecular Libraries Probe Centers Network [MLPCN] MLPCN Grant: MH090855-01 Assay Submitter (PI): Marvin Gerhengorn
1. 3ul of 200 TSHR freshly harvested cells/well are dispensed into a 1536 TC-treated white solid bottom plate. 2. Through pintool addition, 23nl of compounds and control in 100% DMSO are added to the plate. 3. Then 1ul of EC80 TSH (4nM final) is added to the plate. 4. Assay is incubated at 37 deg C for 2 hours. 5. 2ul of cAMP antibody diluted 1:20 in lysis buffer is added. 6. Immediately following, 2ul of d2 diluted 1:20 in HBSS is added seperately. 7. The assay is incubated for 30 minutes at ambient room temperature. 8. The result is obtained by using a ViewLux read-out with HTRF settings.
On the % scale 0 is the no-effect control and ±100 the full control effect.

SMILES | activity change, negative = inhibition
C[C@H]1O[C@@H](OC2CC[C@]3(C=O)[C@H]4CC[C@]5(C)[C@@H](C6=CC(=O)OC6)CC[C@]5(O)[C@@H]4CC[C@]3(O)C2)CC2OC(C)(C)OC21 (stereo partly drawn) | active: -73.7%
C=C1C(O)[C@@H]2O[C@]3(CC[C@H](/C=C/C(C)[C@@H]4CC(C)=CC5(O[C@H](C[C@@](C)(O)C(=O)O)CCC5O)O4)O3)CC[C@H]2O[C@@H]1C(O)CC(C)[C@H]1OC2(CCCCO2)CCC1C (stereo partly drawn) | active: -77.6%
O=C(O)C(O)(c1ccccc1)C1CCCCC1 (stereo not drawn) | inconclusive: -60.2%
COc1ccccc1OCCCn1cc(C(=O)C2CC2)c2ccccc21 | inactive: -6.79%
CC1CCN(S(=O)(=O)c2ccc(NN=C(C#N)C#N)cc2)CC1 | inconclusive: -65.2%
N#CC(C#N)=NNc1ccc(-n2ccc(C(F)(F)F)n2)cc1 | active: -76.1%
COc1cc(C(C)=O)ccc1OC(=O)N(C)c1ccccc1 | active: -122%
CN(C)c1ccc(C=C2C(=O)NC(=O)NC2=O)cc1[N+](=O)[O-] | inactive: 13.5%
COc1cc(N2C(=O)CC(=O)NC2=O)cc(OC)c1OC | active: -130%
COc1ccc(-c2nn(CCC#N)cc2C(=O)Nc2ccc(C(C)=O)cc2)cc1 | inconclusive: -57.1%
CC(C)(C)c1nc(N2CCN(C(=O)c3ccco3)CC2)c2nnn(Cc3ccccc3Cl)c2n1 | inconclusive: -63.1%
CN(C)c1ccc(C(=O)N/N=C/C23CC[C@@H](O)CC2(O)CC[C@@H]2[C@@H]3CCC3(C)C(C4=CC(=O)OC4)CCC23O)cc1 (stereo partly drawn) | inconclusive: -57.8%
O=C(Nc1ccc2ccccc2c1)c1nn(C23CC4CC(CC(C4)C2)C3)cc1Br | inconclusive: -51.9%
C[C@@H]1O[C@@H](O[C@@H]2C=C3CC[C@@H]4C(CC[C@]5(C)[C@@H](c6ccc(=O)oc6)CC[C@]45O)[C@@]3(C)CC2)[C@H](O)[C@H](O)[C@H]1O (stereo partly drawn) | active: -78.2%
Cc1cc(O)c2c(c1)C(=O)C13C(=C2O)C(=O)[C@H]2[C@@H](O)[C@@H]1[C@H]1[C@H](O)[C@@H]3C(=O)C3=C(O)c4c(O)cc(C)cc4C(=O)C312 (stereo partly drawn) | inconclusive: -66.3%
CCCCN=C[C@]12CCC(O)CC1(O)CCC1[C@@H]2CC[C@]2(C)[C@H](C3C=CC(=O)O3)CCC12O (stereo partly drawn) | active: -70.3%
COc1ccc(C(=O)C2CCCN(Cc3ccccn3)C2)c(OC)c1 (stereo not drawn) | inactive: 5.24%
C[C@@H]1O[C@@H](O[C@@H]2C=C3CCC4C(CC[C@]5(C)[C@@H](c6ccc(=O)oc6)CC[C@]45O)[C@@]3(C)CC2)[C@H](O)[C@H](O)[C@H]1O (stereo partly drawn) | active: -74.2%
CN1/C(=C\C=C\C2=[N+](C)c3ccc4ccccc4c3C2(C)C)C(C)(C)c2ccccc21 | active: -92.7%
C[C@@H]1O[C@@H](O[C@H]2C[C@@H](O)[C@]3(CO)[C@@H]4C(CC[C@]3(O)C2)[C@@]2(O)CC[C@H](C3COC(=O)C3)[C@@]2(C)C[C@H]4O)[C@H](O)[C@H](O)[C@H]1O (stereo partly drawn) | inconclusive: -66%
Cn1c(O)c(C=Nc2ccccc2Sc2ccccc2)c(=O)n(C)c1=O | inactive: 1.35%
COC(=O)c1ccc(NC(=O)CSc2nc3ccc(N4C(=O)C5C6C=CC(C6)C5C4=O)cc3s2)cc1 (stereo not drawn) | inconclusive: -55.8%
C[C@]12CCC3C(CCC4=CC(O)CC[C@@]43/C=N/O)C1(O)CCC2C1=CC(=O)OC1 (stereo partly drawn) | inconclusive: -68.8%
COC(=O)C1=C(c2ccc(-c3ccccc3)c(F)c2)C[C@@H]2CC[C@H]1N2C(=O)NCc1ccco1 | active: -82.5%
CC1=CC2/C=C(\C)CCC(O)C(O)/C=C/C(=O)C23C(=O)NC(CC(C)C)C3C1C (stereo not drawn) | inconclusive: -52.8%
C[C@H]1O[C@@H](O[C@H]2[C@@H](O)C[C@H](O[C@H]3[C@@H](O)C[C@H](O[C@H]4CC[C@@]5(C)[C@H](CC[C@@H]6[C@@H]5CC[C@]5(C)[C@@H](C7=CC(=O)OC7)CC[C@]65O)C4)O[C@@H]3C)O[C@@H]2C)C[C@H](O)[C@@H]1O | inconclusive: -65.6%
C[C@]12CC[C@H]3C(CCC4(O)CC(O)CC[C@]34C=O)C1=CC[C@H]2c1ccc(=O)oc1 (stereo partly drawn) | inconclusive: -59.1%
CC(C)(C)c1cc(C=C(C#N)C#N)cc(C(C)(C)C)c1O | active: -74.3% and active: -80.5%

Compounds from the list above that contain a COOH group, in the order listed:
SMILES | activity change, negative = inhibition
C=C1C(O)[C@@H]2O[C@]3(CC[C@H](/C=C/C(C)[C@@H]4CC(C)=CC5(O[C@H](C[C@@](C)(O)C(=O)O)CCC5O)O4)O3)CC[C@H]2O[C@@H]1C(O)CC(C)[C@H]1OC2(CCCCO2)CCC1C (stereo partly drawn) | active: -77.6%
O=C(O)C(O)(c1ccccc1)C1CCCCC1 (stereo not drawn) | inconclusive: -60.2%
